Measurements published in patent US20120207721A1.
No constants are given. Whether binding was seen depends on the method and setting. Binding seen in cells or lysates may run through a third protein. Binding calls can cover weak binding; strength is not graded here.

What was measured:
[1] = biological target: IRB (Homo sapiens (Human)); experiment: co-immunoprecipitation with anti-IR from DSP-crosslinked transfected CHO cells, Western blot with anti-SorCS1-leu
[2] = biological target: IRA (Homo sapiens (Human)); experiment: as above

Row | binding [1] | binding [2] | Binder
1 | binds | binds | murine SorCS1 splice variant SorCS1-c (receptor) SGTEPEKIEPGEGASRSRRDMLKDGGQQGLGTGARDPGKATRFRMEELRLTSTTFALTGDSAHNQAMVHWSGHNSSVILILTKLYDYNLGSITESSLWRSTDYGTTYEKLNDKVGLKTILSYLYVCPTNKCKIMLLTDPEIESSLLISSDEGATYQKYRLNFYLQSLLFHPKQEDWILAYSQDQKLYSSAEFGRRWQLIQESVVPNRFYWSVMGSSKEPDLVHLEARTVDGHSIYLTCRMQNCTEANRNKPFPGYIDPDSLIVQDDYVFVQLTSGGRPHYYVSYRRSPFAQMKLPKYALPKDMHVISTDENQVFAAVQEWNQNDTYNLYISDTRGVYFTLALENVRSSRGPEGNVMIDLYEVAGIKGMFLANKKIDNQVKTFITYNKGRDWRLLQAPDADLRGDPVHCLLPYCSLHLHLKVSENPYTSGIIASRDTAPSIIVASGNIGSELSDSDISMFVSSDAGNTWRQIFEEEHSILYLDQGGVLVAMKHTSLPIRHLWLSFDEGRSWSKYSFTSIPLFVDGVLGEPGEETLIMTVFGHFSHRSEWQLVKVDYKSIFDRRCAEEDYRPWQLHSQGEACIMGAKRIYKKRKSERKCMQKYAGAMESEPCVCTEADFDCDYGYERHSNGQCLPAFWFNPSSLSKDCSLGQSYLNSAGYRKVVSNNCTDGVREQYTAKPQKCPGKAPRGLRIVTADGKLTAEQGHNVTLMVQLEEGDVQRTLIQVDFGDGIAVSYVNLSSMEDGIKHVYQNVGIFRVTVQVDNSLGSDSAVLYLHVTCPLEHVHLSLPFVTTKNKEVNATAVLWPSQVGTLTYVWWYGNNTEPLITLEGSISFKFTSEGMNTITVQVSAGNAILQDTKTIAVYEEFRSLRLAFSPNLDDYNPDIPEWRRDISRVIKKSLVEATGIPSQHILVAVLPGLPTAAELFVLPYQDGTRENKRSPEDLEQISEVLIHKLNQNLVHFELKPGVQVLVHAAHLTAAPLVDLTPTHSGSAMLMLLSVVFVGLAVFVIYKFKRKIPGINVYAQMQNEKEQELINPVSHSESRPSVPHPDLRRPGQLVDEKVESQLLGK
2 | binds | binds | murine SorCS1 splice variant SorCS1-b (receptor) SGTEPEKIEPGEGASRSRRDMLKDGGQQGLGTGARDPGKATRFRMEELRLTSTTFALTGDSAHNQAMVHWSGHNSSVILILTKLYDYNLGSITESSLWRSTDYGTTYEKLNDKVGLKTILSYLYVCPTNKCKIMLLTDPEIESSLLISSDEGATYQKYRLNFYLQSLLFHPKQEDWILAYSQDQKLYSSAEFGRRWQLIQESVVPNRFYWSVMGSSKEPDLVHLEARTVDGHSIYLTCRMQNCTEANRNKPFPGYIDPDSLIVQDDYVFVQLTSGGRPHYYVSYRRSPFAQMKLPKYALPKDMHVISTDENQVFAAVQEWNQNDTYNLYISDTRGVYFTLALENVRSSRGPEGNVMIDLYEVAGIKGMFLANKKIDNQVKTFITYNKGRDWRLLQAPDADLRGDPVHCLLPYCSLHLHLKVSENPYTSGIIASRDTAPSIIVASGNIGSELSDSDISMFVSSDAGNTWRQIFEEEHSILYLDQGGVLVAMKHTSLPIRHLWLSFDEGRSWSKYSFTSIPLFVDGVLGEPGEETLIMTVFGHFSHRSEWQLVKVDYKSIFDRRCAEEDYRPWQLHSQGEACIMGAKRIYKKRKSERKCMQKYAGAMESEPCVCTEADFDCDYGYERHSNGQCLPAFWFNPSSLSKDCSLGQSYLNSAGYRKVVSNNCTDGVREQYTAKPQKCPGKAPRGLRIVTADGKLTAEQGHNVTLMVQLEEGDVQRTLIQVDFGDGIAVSYVNLSSMEDGIKHVYQNVGIFRVTVQVDNSLGSDSAVLYLHVTCPLEHVHLSLPFVTTKNKEVNATAVLWPSQVGTLTYVWWYGNNTEPLITLEGSISFKFTSEGMNTITVQVSAGNAILQDTKTIAVYEEFRSLRLAFSPNLDDYNPDIPEWRRDISRVIKKSLVEATGIPSQHILVAVLPGLPTAAELFVLPYQDGTRENKRSPEDLEQISEVLIHKLNQNLVHFELKPGVQVLVHAAHLTAAPLVDLTPTHSGSAMLMLLSVVFVGLAVFVIYKFKRRVALPSPPSPSAQPGDSSLRLQRPRPATPPSSPKRGSAGAQFAI
